A short description of the experiment: qHTS Assay for Lipid Storage Modulators in Drosophila S3 Cells.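 For cell number change: cells counted by Cell Tracker Red CMTPX staining in the red channel.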 The settings on record: BODIPY lipid droplet fluorescence, 18-24 h; for cell number change: measured here: cell count max response, cells fed with added oleic acid. In outline:
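Drosophila S3 cells loaded with oleic acid (400 uM, as added) and compounds at several concentrations; lipid droplets imaged by 488-nm laser-scanning cytometry, 500–530 nm intensity and object ratio to cell channel. Percent activity normalized to 20 uM Triacsin C.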

[1] abbreviates: measured here: cell number channel AC50, cells fed with added oleic acid.
[2] abbreviates: measured here: lipid fluorescence (Fed channel) AC50, cells fed with added oleic acid.

SMILES strings stand for the structures. Some of the results follow. These are further read-outs of the screen, such as a control signal, another cell line or another target. No call is given for them. Most of these compounds were active or inconclusive in the main read-out, so they are no random draw. The note in brackets gives the kind of curve behind each potency; many fits are weak.

As for `CN(C)C(=O)C(=O)c1cccn1-c1ccccc1C#N`, the cell number change came to 7.39%. For the same molecule, the AC50 under setting [1] was 0.13 µM [falling, full curve, poor fit]. The concentration at half-maximal activity (AC50) under setting [2] is 25.9 µM [falling, partial curve].
Take `O=C(C[n+]1ccccc1)Nc1ccc(Cl)c([N+](=O)[O-])c1`: the cell number change worked out at 6.29%. In addition, under setting [2], the half-maximal activity concentration (AC50) is 0.116 µM [rising, full curve, poor fit].
For the molecule `O=C(NC(=S)N1CCc2ccccc21)c1ccc(Br)o1`, the cell number change turned out to be 98.5%. For the same molecule, the AC50 under setting [1] was 29.1 µM [rising, single point].
`O=C(Nc1ccc2c(c1)OCO2)C1CC(=O)N(c2ccc3c(c2)OCCO3)C1` (stereo unspecified): the cell number change turned out to be 88.2%. Under setting [1], the concentration at half-maximal activity (AC50) was 13 µM [rising, partial curve, poor fit]. Further, under setting [2], the concentration at half-maximal activity (AC50) is 20.6 µM [rising, partial curve].
Regarding `Cn1c(CNC(=O)CNS(=O)(=O)c2ccc(F)cc2F)cc(=O)n(C)c1=O`, the cell number change amounted to 23.7%. The AC50 under setting [2] was 29.1 µM [rising, single point].
Regarding `C=C(C)C1CC=C(C)/C(=N/NC(=O)COc2ccc(C)cc2)C1` (stereo unspecified), the cell number change was -39.8%. The AC50 under setting [1] was 3.26 µM [falling, full curve]. In addition, the concentration at half-maximal activity (AC50) under setting [2] is 3.26 µM [falling, full curve].
`Cc1ccc(CNC(=O)COc2ccccc2-c2ccccc2)cc1`: the cell number change amounted to 25.3%. In addition, under setting [2], the concentration at half-maximal activity (AC50) was 20.6 µM [rising, single point].
Take `COc1ccc([C@H]2CC(=O)C=C(c3ccc4ccn(C)c4c3)C2)cc1`: the cell number change was -16.3%. For the same molecule, under setting [1], the AC50 was 0.13 µM [falling, full curve, poor fit].
With `COc1cccc(C2/C(=C(/O)c3ccncc3)C(=O)C(=O)N2CCCN(C)C)c1` (stereo unspecified), under setting [2], the concentration at half-maximal activity (AC50) is 0.0259 µM [falling, full curve, poor fit].
Turning to `CCOc1cc(C)cc2oc(=O)cc(-c3ccccc3)c12`, the cell number change amounted to 3%. For the same molecule, the AC50 under setting [2] was 29.1 µM [rising, single point].
Turning to `CCOc1ccc(NC(=S)NC(C)C(c2ccccc2)N2CCN(C)CC2)cc1` (stereo unspecified), the cell number change is -34.9%. Moreover, the AC50 under setting [1] is 0.0058 µM [falling, full curve, poor fit]. Also, under setting [2], the concentration at half-maximal activity (AC50) was 0.00461 µM [falling, full curve, poor fit].
With `CN1C(=O)N(C)C(c2ccccc2Cl)C2=C1CC(C)(C)CC2=O` (stereo unspecified), the cell number change is -10.5%.
On to `CC1CCCCN1C(=O)c1ccc(COc2ccc([N+](=O)[O-])cc2)o1` (stereo unspecified), for which the cell number change is -2.19%. The AC50 under setting [2] was 13 µM [rising, partial curve, poor fit].
On to `COc1ccc(C)cc1-n1nc2ccccc2n1`, for which the cell number change was -42.7%.
On to `O=C(Nc1cccc(Cl)c1)Nc1csc([N+](=O)[O-])c1`, for which the cell number change is -61.4%. Besides, the AC50 under setting [1] is 7.31 µM [falling, partial curve]. Besides, the AC50 under setting [2] is 13 µM [falling, partial curve].
Take `CC1=NC(Nc2nc(C)c3ccccc3n2)=NC(C)(C)C1`: the cell number change came out at 22.6%. Further, the AC50 under setting [1] was 2.06 µM [rising, single point]. The AC50 under setting [2] is 3.26 µM [rising, partial curve].
Take `CCOC(=O)c1sc(=NC(=O)c2cc(OC)c(OC)c(OC)c2)n(C)c1C`: the concentration at half-maximal activity (AC50) under setting [1] is 0.58 µM [falling, single point].
For `Cc1ncc(CO)c(CNc2ccc(Oc3ccccc3)cc2)c1O`, the cell number change was -16.2%.
Consider `CC(=O)c1c(C)[nH]c(C(=O)N2CCc3ccccc32)c1C`, for which the cell number change was 14.4%. Moreover, the AC50 under setting [2] was 3.26 µM [rising, partial curve].
`CCOC(=O)CN(Cc1ccc(OC)c(OC)c1)S(=O)(=O)c1ccc(OC)cc1`: the cell number change was determined as 68.2%. Under setting [1], the AC50 is 1.64 µM [rising, full curve]. Also, the concentration at half-maximal activity (AC50) under setting [2] is 1.64 µM [rising, full curve].
Consider `N#Cc1cnn(Cc2ccc(Cl)cc2)c1N`, for which, under setting [2], the AC50 is 6.51 µM [rising, single point].
In the case of `Cc1ccc(NC(=S)N(CCCN2CCC(C)CC2)Cc2ccco2)cc1C`, the cell number change worked out at 18.4%. Further, the half-maximal activity concentration (AC50) under setting [2] is 18.4 µM [rising, single point].
Take `COc1cc(NC(=O)CSc2nc(C)cs2)cc(OC)c1`: the half-maximal activity concentration (AC50) under setting [2] is 0.58 µM [falling, single point].
Take `Cc1cccc(C(C)C)c1NC(=O)c1c(-c2ccccc2)noc1C`: under setting [2], the AC50 is 6.51 µM [rising, single point].
The same measure, in the same setting: the same measure for `O=C(O)c1ccc(Cn2c(SCc3cc(=O)n4cc(Br)ccc4n3)nc3ccsc3c2=O)cc1`: 5.8 µM [rising, partial curve].
As for `COc1ccc(NCC(=O)N/N=C2\CCc3ccccc32)cc1`, the cell number change amounted to 82.8%. For the same molecule, the concentration at half-maximal activity (AC50) under setting [1] was 2.06 µM [rising, full curve]. Besides, under setting [2], the AC50 is 2.91 µM [rising, full curve].
On to `CCN1C(=O)/C(=C\c2cn(-c3ccccc3)nc2-c2cccnc2)SC1=S`, for which, under setting [2], the concentration at half-maximal activity (AC50) was 0.116 µM [rising, single point].
As to `CCOC(=O)C1=C(C)NC(=O)NC1c1cc(Br)c(O)c(OC)c1` (stereo unspecified), the AC50 under setting [2] is 0.0651 µM [falling, full curve, poor fit].
As to `COc1ccc(C)cc1N(CC(=O)NC1CCCC1)C(=O)CCC(=O)Nc1nc(C)cs1`, the cell number change was determined as 15%. Besides, under setting [2], the AC50 was 25.9 µM [falling, single point].
As to `CCOc1ccc(N2C(=O)CC(NCCc3c[nH]c4ccccc34)C2=O)cc1` (stereo unspecified), the cell number change is -41.7%.
Take `COc1ccc(CNC(=O)CN(Cc2ccccc2Cl)C(=O)c2csnn2)cc1`: the cell number change was -21.8%. Besides, under setting [2], the half-maximal activity concentration (AC50) is 0.058 µM [falling, partial curve, poor fit].
Consider `CC1=C(C(=O)OC(C)C)C(C)C(C(=O)OC(C)C)=C(C)N1`, for which the cell number change is -10.4%. Moreover, the half-maximal activity concentration (AC50) under setting [2] is 2.31 µM [rising, partial curve].
In the case of `c1ccc(-c2ccc(CN3CCSCC3)cc2)cc1`, the cell number change is -37.5%. Also, the concentration at half-maximal activity (AC50) under setting [1] was 29.1 µM [falling, single point].
For the molecule `NS(=O)(=O)c1ccc(CCNC(=O)c2ccc(NC3=NC4CS(=O)(=O)CC4S3)cc2)cc1` (stereo unspecified), the cell number change was determined as 29.5%. Besides, the AC50 under setting [2] is 20.6 µM [rising, partial curve].
`CCOc1cc(/C=N/NC(=O)OC)ccc1OCCSc1ccc(Cl)cc1`: the AC50 under setting [2] is 1.84 µM [rising, partial curve, poor fit].
As to `O=C(COC(=O)c1ccccc1NCCO)Nc1cc(C(F)(F)F)ccc1N1CCOCC1`, the cell number change is -11.9%. Also, the AC50 under setting [2] is 15.8 µM [falling, single point].
Turning to `Cc1nc2ccc(Cl)cn2c1C(=O)NN`, the cell number change amounted to 4.99%. Further, the AC50 under setting [2] is 3.66 µM [rising, partial curve, poor fit].
For the molecule `CCOc1cc(C(=S)N2CCOCC2)ccc1OC(=O)c1ccc(C)cc1`, the cell number change is -52.5%. Also, the concentration at half-maximal activity (AC50) under setting [1] was 14.6 µM [falling, partial curve].

Values taken from PubChem BioAssay AID2685 (National Center for Advancing Translational Sciences (NCATS), 2010).
